# The list shows a part of the results. Some of these compounds have results that are not shown, active ones among them.
# Test: selective activators of receptor GPR55 – imaging, U2OS cells, beta-arrestin-GFP redistribution, primary screen (AID 1961);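 also: U2OS osteosarcoma cells stably expressing GPR55 and beta-arrestin-GFP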
# Conditions: measured here: cytotoxicity, cells analyzed, at 10 µM
row,SMILES,cell count
1,CC(C)N1C(=O)CC2(CCN(CCOC(=O)C(O)(c3ccccc3)c3ccccc3)CC2)C1=O,406 cells
2,CCN(CC)CC(C)C(C)OC(=O)C(O)(c1ccccc1)c1ccccc1 (centres undefined),352 cells
3,COc1cc(SC)ccc1C(=O)NCC1(N(C)C)CCCCC1,386 cells
4,Cc1ccc(C(=O)NCC2(N3CCCCC3)CCCCC2)cc1,364 cells
5,O=C(NCC1(N2CCCCC2)CCCCC1)c1cc([N+](=O)[O-])ccc1Cl,238 cells
6,CN1[C@@H]2CC[C@H]1CC(OC(=O)C(O)(c1ccccc1)c1ccccc1)C2 (some centres undefined),394 cells
7,C=CCN1CCN(CCOC(=O)C(O)(c2ccccc2)c2ccccc2)CC1,342 cells
8,O=C(NCC1(N2CCCCC2)CCCCC1)c1cc(F)c(F)cc1Cl,342 cells
9,CCN1CCCC(OC(=O)C2(O)c3ccccc3C=Cc3ccccc32)C1 (centres undefined),326 cells
10,Cc1cc(C(=O)NCC2(N3CCCCC3)CCCCC2)ccc1[N+](=O)[O-],311 cells
11,O=C(NCC1(N2CCCCC2)CCCCC1)c1cccc(Br)c1,389 cells
12,COc1ccc(C(=O)NCC2(N(C)C)CCCCC2)cc1,364 cells
13,Cc1ccccc1C(=O)NCC1(N2CCCCC2)CCCCC1,191 cells
14,CN(C)c1ccc(C(=O)NCC2(N(C)C)CCCCC2)cc1,407 cells
15,CN(C)C1CCCC1OC(=O)C(O)(c1ccccc1)c1ccccc1 (centres undefined),329 cells
16,COc1cccc(C(=O)NCC2(N3CCCCC3)CCCCC2)c1,248 cells
17,COc1ccc(Cl)cc1C(=O)NCC1(N(C)C)CCCCC1,342 cells
18,O=C(NCC1(N2CCCCC2)CCCCC1)c1cccc(Cl)c1,343 cells
19,CN(C)C1(CNC(=O)c2ccc(Br)cc2)CCCCC1,391 cells
20,COc1cc(C(=O)NCC2(N(C)C)CCCCC2)c([N+](=O)[O-])cc1OC,335 cells
21,COc1ccc(Br)c(C(=O)NCC2(N3CCCCC3)CCCCC2)c1,345 cells
22,CN(C)c1cccc(C(=O)NCC2(N(C)C)CCCCC2)c1,296 cells
23,CC(C)Oc1ccc(C(=O)NCC2(N(C)C)CCCCC2)cc1,349 cells
24,O=C(OC1CN2CCC1CC2)C(CO)(c1ccccc1)c1ccccc1 (centres undefined),393 cells

# From PubChem BioAssay AID1961 (Sanford-Burnham Center for Chemical Genomics, 2009)
